No constants are given. Whether binding was seen depends on the method and setting. In cells and extracts the contact can be indirect. Some binding calls cover weakened binding; strength is not graded here. For some assays here: Sequences can lack the tags named with a protein.
Tests used:
Flag-USP1 = target: T1, Flag-USP1 (UniProt O94782); experiment: co-IP; Flag-USP1 with WT or truncated TAZ in transfected cells; Co-IP with USP1 (anti-Flag antibody), immunoblot
T1 sequence: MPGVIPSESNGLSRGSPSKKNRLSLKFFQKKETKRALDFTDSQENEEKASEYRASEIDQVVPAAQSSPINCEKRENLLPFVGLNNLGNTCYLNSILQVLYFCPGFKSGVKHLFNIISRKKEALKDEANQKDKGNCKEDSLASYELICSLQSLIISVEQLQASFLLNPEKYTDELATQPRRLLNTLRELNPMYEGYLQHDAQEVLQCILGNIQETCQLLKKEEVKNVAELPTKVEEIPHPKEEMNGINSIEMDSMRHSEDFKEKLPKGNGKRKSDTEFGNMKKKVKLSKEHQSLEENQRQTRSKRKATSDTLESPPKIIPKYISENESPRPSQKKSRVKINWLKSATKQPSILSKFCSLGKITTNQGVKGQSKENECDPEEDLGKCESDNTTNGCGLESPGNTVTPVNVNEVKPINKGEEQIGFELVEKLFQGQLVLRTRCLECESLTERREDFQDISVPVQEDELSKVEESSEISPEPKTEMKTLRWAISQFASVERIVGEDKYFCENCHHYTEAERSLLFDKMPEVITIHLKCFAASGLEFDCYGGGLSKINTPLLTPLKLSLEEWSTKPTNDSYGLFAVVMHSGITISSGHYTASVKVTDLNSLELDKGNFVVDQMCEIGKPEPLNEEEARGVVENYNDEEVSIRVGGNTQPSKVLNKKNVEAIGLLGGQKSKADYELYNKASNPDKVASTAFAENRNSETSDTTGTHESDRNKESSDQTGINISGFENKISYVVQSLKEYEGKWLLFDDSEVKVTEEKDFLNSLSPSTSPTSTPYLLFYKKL

Sequences of proteins named here, by UniProt entry; tags and fusion partners are left off.
UniProt Q9GZV5: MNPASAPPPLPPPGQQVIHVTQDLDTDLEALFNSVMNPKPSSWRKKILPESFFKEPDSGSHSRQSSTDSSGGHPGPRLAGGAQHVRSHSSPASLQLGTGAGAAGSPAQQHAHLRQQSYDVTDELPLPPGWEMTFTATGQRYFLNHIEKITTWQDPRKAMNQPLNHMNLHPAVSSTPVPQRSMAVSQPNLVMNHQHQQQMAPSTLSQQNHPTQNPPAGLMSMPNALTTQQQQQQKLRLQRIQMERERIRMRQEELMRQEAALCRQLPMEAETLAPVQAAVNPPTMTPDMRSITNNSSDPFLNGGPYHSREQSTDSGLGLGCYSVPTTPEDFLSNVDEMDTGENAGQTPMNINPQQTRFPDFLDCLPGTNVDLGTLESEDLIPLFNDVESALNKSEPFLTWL

[1] = target: T2, USP1 (ubiquitin carboxyl-terminal hydrolase 1) (human (endogenous in HLF)) (UniProt O94782); experiment: co-IP; endogenous proteins in HLF cell lysate; 500 µg lysate precleared with Protein A + G agarose and rabbit IgG, immunoprecipitation with the indicated antibody 4 h at 4 °C; IgG as negative control
T2 sequence: T1 sequence

| Substance | binding (Flag-USP1) | binding [1] |
| --- | --- | --- |
| Myc-TAZ (from UniProt Q9GZV5 1-400) | binds | – |
| WW domain-containing transcription regulator protein 1 (WWTR1; TAZ) (from UniProt Q9GZV5 1-400) | – | binds |
